# Laboratory results: patent publication EP0005219A1, “Arylimidazoles, their synthesis and pharmaceutical or veterinary preparations containing them” (A/S Dumex (Dumex Ltd.), priority 1978, dated 1979)
# Key:
# [1] = in vivo; settings: mouse, po, mice, by gavage, observation period 168 hours, read-out: Acute toxicity LD50
# [2] = system: mice; assay: Writhing test in mice (acetic acid induced writhing), analgesic activity; format: in vivo; settings: Mus musculus, po, 20 min, by gavage ½ hour prior to intraperitoneal acetic acid, writhing movements in 20 minutes
# Protocol: Writhing test in mice. (SPF females of the strain NMRI/BOM, weighing 20-25 g). The test substance was administered by gavage ½ hour prior to an intraperitoneal injection of acetic acid. The number of writhing movements in 20 minutes was counted.
compound,measurement,setting,value
"COc1ccc2cc([C@H](C)C(=O)O)ccc2c1 [Compound 14, Naproxen, reference compound]",LD50 at 168 h,[1],1340 mg/kg
same,ED50,[2],33 mg/kg
